{
  "source": "the supplement of paper PMC8104966",
  "note": "Some of the results follow. Repeats in this data set agree poorly, so a single value says little.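 U2OS cells expressing ACE2 were combined with U2OS cells expressing full-length spike, and imaging quantified fusion as the fraction of nuclei displaying both cell types' fluorescent markers. Non-toxic compounds with a fusion z-score under -3, i.e., over three standard deviations below the plate's DMSO wells, are called inhibitory hits.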",
  "data": [
    {"system": "U2OS ACE2 x SARS-CoV-2 spike co-culture", "assay": "cell-cell fusion (fraction fused) z-score vs plate DMSO control; higher = more fusion", "conditions": "30 µM; 5 h; toxicity class: non-toxic, passed QC", "values": [
      {"molecule": "Clc1nccc2c1ccc1ccccc12", "cell-cell fusion (z-score)": "inactive: 1.38"},
      {"molecule": "CNCC(O)c1ccc(O)c(O)c1.Cl", "note": "(racemic) [DL-Adrenaline Hydrochloride]", "cell-cell fusion (z-score)": "inactive: -1.63"},
      {"molecule": "O=C(O)c1cccnc1C(=O)O", "note": "[Quinolinic acid]", "cell-cell fusion (z-score)": "inactive: 2.2"},
      {"molecule": "O=C(O)c1cccnc1C(=O)O", "cell-cell fusion (z-score)": "inactive: 3.55"},
      {"molecule": "COc1ccc2cc1Oc1ccc(cc1)C[C@H]1c3c(cc4c(c3Oc3cc5c(cc3OC)CCN(C)[C@@H]5C2)OCO4)CCN1C", "cell-cell fusion (z-score)": "inactive: 0.53"},
      {"molecule": "CCC(=O)O[C@]1(C(=O)CCl)[C@@H](C)CC2C3CCC4=CC(=O)C=C[C@]4(C)[C@@]3(F)[C@@H](O)C[C@@]21C", "note": "(some centres not stated)", "cell-cell fusion (z-score)": "inactive: 0.798"},
      {"molecule": "O=c1cc(N2CCOCC2)oc2c(-c3ccccc3)cccc12", "cell-cell fusion (z-score)": "inactive: 0.169"},
      {"molecule": "COc1ccc2c(c1)c(CC(=O)OCC(=O)O)c(C)n2C(=O)c1ccc(Cl)cc1", "cell-cell fusion (z-score)": "inactive: 1.51"},
      {"molecule": "CC12CCCC(O)(C1)C1CC(C)(C)C1CC2", "note": "(stereo not drawn) [beta-CARYOPHYLLENE ALCOHOL]", "cell-cell fusion (z-score)": "inactive: 3.44"},
      {"molecule": "NCCc1c[nH]c2ccccc12", "cell-cell fusion (z-score)": "inactive: 1.59"},
      {"molecule": "CC(=O)N[C@@H](CS)C(=O)O", "note": "[Acetylcysteine]", "cell-cell fusion (z-score)": "inactive: 2.93"},
      {"molecule": "O=C(O)c1cccnc1Nc1cccc(C(F)(F)F)c1", "cell-cell fusion (z-score)": "inactive: 0.00216"},
      {"molecule": "CC(C)=CCC[C@@H](C)CC=O", "cell-cell fusion (z-score)": "inactive: 2.45"},
      {"molecule": "CC(=O)OCC(=O)[C@@]12OC(C)(C)O[C@@H]1C[C@H]1[C@@H]3C[C@H](F)C4=CC(=O)C=C[C@]4(C)[C@@]3(F)[C@@H](O)C[C@@]12C", "note": "[Fluocinonide]", "cell-cell fusion (z-score)": "inactive: 2.87"},
      {"molecule": "Cl.N=c1ccn2c(n1)O[C@@H]1[C@@H](O)[C@H](CO)O[C@@H]12", "cell-cell fusion (z-score)": "inactive: -1.71"},
      {"molecule": "CN/C(=C/[N+](=O)[O-])NCCSCc1ccc(CN(C)C)o1.Cl", "note": "[Ranitidine Hydrochloride]", "cell-cell fusion (z-score)": "inactive: 2.18"},
      {"molecule": "Cn1c(=O)c(F)c(Nc2ccc(I)cc2F)c2c(=O)n(C[C@@H](O)CO)cnc21", "cell-cell fusion (z-score)": "inactive: 0.467"},
      {"molecule": "O=C([O-])CCCO.[Na+]", "cell-cell fusion (z-score)": "inactive: 0.91"},
      {"molecule": "CCOC(=O)C1=C(O)C(=O)N(c2ccccc2)C1", "cell-cell fusion (z-score)": "inactive: 1.71"},
      {"molecule": "COc1ccc(Cc2nccc3cc(OC)c(OC)cc23)cc1OC.Cl", "cell-cell fusion (z-score)": "inactive: -1.76"},
      {"molecule": "CC1CCc2c(N3CCC(O)CC3)c(F)cc3c(=O)c(C(=O)O)cn1c23", "note": "(configuration not stated)", "cell-cell fusion (z-score)": "inactive: 1.12"},
      {"molecule": "CC(C)NCC(O)COc1cccc2ccccc12.Cl", "note": "(racemic) [(±)-Propranolol hydrochloride]", "cell-cell fusion (z-score)": "inactive: 2.19"},
      {"molecule": "CC(C)(Oc1ccc(Cl)cc1)C(=O)O", "note": "[Clofibric acid]", "cell-cell fusion (z-score)": "inactive: 3.66"},
      {"molecule": "COc1cc(OC)c(C(=O)CCCN2CCCC2)c(OC)c1.Cl", "cell-cell fusion (z-score)": "inactive: 1.59"},
      {"molecule": "N[C@@H](CC(=O)N1CCn2c(nnc2C(F)(F)F)C1)Cc1cc(F)c(F)cc1F", "note": "[Sitagliptin]", "cell-cell fusion (z-score)": "inactive: 2.52"},
      {"molecule": "Nc1nc(=O)c2nc(CNc3ccc(C(=O)N[C@@H](CCC(=O)O)C(=O)O)cc3)cnc2[nH]1", "cell-cell fusion (z-score)": "inactive: 1.35"},
      {"molecule": "COc1nc(N)nc2c1ncn2[C@@H]1O[C@H](CO)[C@@H](O)[C@@H]1O", "note": "[Nelarabine]", "cell-cell fusion (z-score)": "inactive: 1.06"},
      {"molecule": "COc1ccc(-c2oc3cc(OC)c(OC)c(OC)c3c(=O)c2OC)cc1OC", "cell-cell fusion (z-score)": "inactive: 1.29"},
      {"molecule": "C[C@H](Nc1ncnc2nc[nH]c12)c1cc2cccc(Cl)c2c(=O)n1-c1ccccc1", "note": "[Duvelisib]", "cell-cell fusion (z-score)": "inactive: 0.335"},
      {"molecule": "C=CC(=O)Nc1ccc2ncnc(Nc3cccc(Br)c3)c2c1", "cell-cell fusion (z-score)": "inactive: -2.41"},
      {"molecule": "C=CC(N)CCC(=O)O.NCCO", "note": "(configuration not stated)", "cell-cell fusion (z-score)": "inactive: -1.22"},
      {"molecule": "O=C(OCc1ccccc1)c1ccccc1", "cell-cell fusion (z-score)": "inactive: 2.7"},
      {"molecule": "COc1ccc(C(=O)Nc2sc3c(c2C(N)=O)CCCC3)cc1OC", "cell-cell fusion (z-score)": "inactive: 1.33"},
      {"molecule": "CC1(C)[C@@H]2CC[C@]1(C)C(=O)C2", "cell-cell fusion (z-score)": "inactive: 0.606"},
      {"molecule": "O=c1[n-]c(=O)n(Cl)c(=O)n1Cl.[K+]", "cell-cell fusion (z-score)": "inactive: 0.837"},
      {"molecule": "Nc1nc(NC2CC2)c2ncn([C@H]3C=C[C@@H](CO)C3)c2n1.Nc1nc(NC2CC2)c2ncn([C@H]3C=C[C@@H](CO)C3)c2n1.O=S(=O)(O)O", "note": "[Abacavir sulfate]", "cell-cell fusion (z-score)": "inactive: 2.2"},
      {"molecule": "CCCCCc1c2c(cc(O)c1C(=O)O)OC(=O)c1c(cc(OC)cc1C(=O)CCCC)O2", "cell-cell fusion (z-score)": "inactive: 2.97"}
    ]}
  ]
}
